Measurements published in publication PMC3679036.
Changes are numbered by the printed parent chain. These are yes or no findings as the source states them, for the method shown. Binding seen in cells or lysates may run through a third protein. Some results given as binding are weak or reduced against the parent protein; the word gives no strength.

Chains of the proteins cited; added tags and fusions are not shown.
UniProt Q9QUI0: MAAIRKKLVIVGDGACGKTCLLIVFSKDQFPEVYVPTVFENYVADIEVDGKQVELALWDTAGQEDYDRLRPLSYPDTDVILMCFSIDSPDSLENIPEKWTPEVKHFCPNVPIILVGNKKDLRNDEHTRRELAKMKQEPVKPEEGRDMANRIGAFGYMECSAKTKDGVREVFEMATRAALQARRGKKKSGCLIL

Experiments:
[1] = biological target: T1, S96A-RhoGDI1 (phosphodefective mutant) (human) (UniProt P52565); experiment: co-IP; total lysates of mouse pancreatic acini expressing WT or mutant human RhoGDI1 by adenovirus (alone or with HA-CA-RhoA or HA-CA-Rac1); IP with rabbit anti-RhoGDI1, protein A-agarose; blots for RhoA, Rac1 or the HA tag
T1 sequence: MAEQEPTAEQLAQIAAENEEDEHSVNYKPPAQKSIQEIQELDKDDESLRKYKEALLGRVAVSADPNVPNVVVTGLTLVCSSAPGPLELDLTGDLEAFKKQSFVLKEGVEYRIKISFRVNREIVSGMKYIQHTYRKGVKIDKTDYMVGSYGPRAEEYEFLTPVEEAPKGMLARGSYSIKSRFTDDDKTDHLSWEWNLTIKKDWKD

[2] = biological target: T2, S34D-RhoGDI1 (phosphomimetic mutant) (human) (UniProt P52565); experiment: as above
T2 sequence: T1 sequence with S34D, A96S

[3] = biological target: T3, S34A-RhoGDI1 (phosphodefective mutant) (human) (UniProt P52565); experiment: as above
T3 sequence: T1 sequence with S34A, A96S

[4] = biological target: T4, wild-type (WT) human RhoGDI1, overexpressed in pancreatic acini (human) (UniProt P52565); experiment: as above
T4 sequence: T1 sequence with A96S

[5] = biological target: RhoGDI1 (endogenous, mouse pancreatic acini) (mouse (endogenous in pancreatic acini of ICR mice)) (UniProt Q99PT1); experiment: co-IP; cytosolic fraction (1000 µg) of mouse pancreatic acini rotated overnight at 4°C with rabbit anti-RhoGDI1, protein A-agarose; blots for RhoA, Rac1, Cdc42; acini with or without CCK (300 pM) for 5, 15 or 30 min

binding [1]: binds | binding [2]: binds | binding [3]: binds | binding [4]: binds | binding [5]: binds
Substance: RhoA (endogenous, mouse pancreatic acini) (from UniProt Q9QUI0 1-193)
